In PMC4033603 one finds binding data, which are given here for 1 molecule.

Chains of the proteins cited; added tags and fusions are not shown. Residues count along the entry.
UniProt P46531, residues 19-2555: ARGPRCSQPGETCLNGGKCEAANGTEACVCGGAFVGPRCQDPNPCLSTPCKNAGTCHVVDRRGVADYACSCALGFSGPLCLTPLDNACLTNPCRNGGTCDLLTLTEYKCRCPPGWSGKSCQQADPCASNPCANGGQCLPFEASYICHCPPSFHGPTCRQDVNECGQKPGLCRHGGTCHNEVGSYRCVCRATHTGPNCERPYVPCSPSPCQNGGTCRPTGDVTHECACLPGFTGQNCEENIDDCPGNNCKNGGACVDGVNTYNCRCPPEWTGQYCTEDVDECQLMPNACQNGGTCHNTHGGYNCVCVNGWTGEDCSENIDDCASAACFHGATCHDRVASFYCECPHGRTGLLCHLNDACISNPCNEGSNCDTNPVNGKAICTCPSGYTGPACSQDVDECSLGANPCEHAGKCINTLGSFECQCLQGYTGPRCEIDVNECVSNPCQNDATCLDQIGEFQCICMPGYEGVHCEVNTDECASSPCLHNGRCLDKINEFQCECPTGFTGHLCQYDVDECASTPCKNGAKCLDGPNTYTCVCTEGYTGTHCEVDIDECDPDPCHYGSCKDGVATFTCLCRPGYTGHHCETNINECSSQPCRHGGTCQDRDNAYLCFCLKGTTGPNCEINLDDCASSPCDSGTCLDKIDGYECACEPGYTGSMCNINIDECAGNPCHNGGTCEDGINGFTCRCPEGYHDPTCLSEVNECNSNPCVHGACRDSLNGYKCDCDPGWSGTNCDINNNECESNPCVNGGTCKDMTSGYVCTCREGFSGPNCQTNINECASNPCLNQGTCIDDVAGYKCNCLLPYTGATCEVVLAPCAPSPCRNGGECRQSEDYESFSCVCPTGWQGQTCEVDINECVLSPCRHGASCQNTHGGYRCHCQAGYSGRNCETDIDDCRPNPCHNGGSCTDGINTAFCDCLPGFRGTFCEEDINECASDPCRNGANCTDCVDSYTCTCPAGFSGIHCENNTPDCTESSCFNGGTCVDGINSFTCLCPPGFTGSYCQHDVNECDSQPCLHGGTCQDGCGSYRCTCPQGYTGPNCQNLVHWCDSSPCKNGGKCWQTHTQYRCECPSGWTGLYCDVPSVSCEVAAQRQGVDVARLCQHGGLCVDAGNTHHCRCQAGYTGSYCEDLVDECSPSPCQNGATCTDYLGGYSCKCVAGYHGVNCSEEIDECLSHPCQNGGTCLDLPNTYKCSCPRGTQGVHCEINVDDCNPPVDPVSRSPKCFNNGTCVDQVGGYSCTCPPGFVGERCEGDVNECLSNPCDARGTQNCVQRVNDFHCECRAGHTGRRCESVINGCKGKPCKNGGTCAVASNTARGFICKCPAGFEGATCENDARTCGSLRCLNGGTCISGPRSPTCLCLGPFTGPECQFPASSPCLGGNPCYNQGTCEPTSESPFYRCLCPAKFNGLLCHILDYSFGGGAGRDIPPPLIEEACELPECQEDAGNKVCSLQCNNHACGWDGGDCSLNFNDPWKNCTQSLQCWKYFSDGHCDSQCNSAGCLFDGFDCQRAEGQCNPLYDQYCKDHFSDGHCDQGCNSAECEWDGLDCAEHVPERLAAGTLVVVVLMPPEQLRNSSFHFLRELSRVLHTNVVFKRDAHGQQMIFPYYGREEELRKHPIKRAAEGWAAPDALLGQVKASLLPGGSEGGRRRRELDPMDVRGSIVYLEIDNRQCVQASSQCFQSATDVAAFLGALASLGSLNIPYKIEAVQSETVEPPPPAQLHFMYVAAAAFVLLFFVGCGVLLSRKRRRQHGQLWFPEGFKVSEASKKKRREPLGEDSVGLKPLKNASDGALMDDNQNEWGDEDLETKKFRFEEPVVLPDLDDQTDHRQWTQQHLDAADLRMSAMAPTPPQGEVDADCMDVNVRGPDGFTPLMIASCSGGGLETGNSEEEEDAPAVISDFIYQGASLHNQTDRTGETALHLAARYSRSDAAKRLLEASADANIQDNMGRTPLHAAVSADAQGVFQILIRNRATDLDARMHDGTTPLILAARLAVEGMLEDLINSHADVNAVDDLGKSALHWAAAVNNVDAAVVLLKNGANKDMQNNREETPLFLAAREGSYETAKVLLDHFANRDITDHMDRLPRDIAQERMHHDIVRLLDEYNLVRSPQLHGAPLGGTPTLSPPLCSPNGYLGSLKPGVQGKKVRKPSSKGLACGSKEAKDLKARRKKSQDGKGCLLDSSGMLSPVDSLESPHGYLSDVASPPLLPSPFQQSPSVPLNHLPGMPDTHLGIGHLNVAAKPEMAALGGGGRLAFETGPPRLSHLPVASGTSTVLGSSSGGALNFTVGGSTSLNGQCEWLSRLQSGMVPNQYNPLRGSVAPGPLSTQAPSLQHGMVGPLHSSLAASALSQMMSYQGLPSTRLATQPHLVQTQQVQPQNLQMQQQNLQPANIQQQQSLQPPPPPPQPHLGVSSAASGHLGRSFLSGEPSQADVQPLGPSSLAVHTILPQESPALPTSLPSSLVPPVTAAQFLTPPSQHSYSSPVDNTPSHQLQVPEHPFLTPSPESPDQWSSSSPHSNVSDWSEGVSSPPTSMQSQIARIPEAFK

No constants are given. Whether binding was seen depends on the method and setting. Binding seen in cells or lysates may run through a third protein. Some results given as binding are weak or reduced against the parent protein; the word gives no strength.

The experiment has as its target NOTCH1 (human (endogenous in Jurkat)) (UniProt P46531). The experiment in a line: co-IP; endogenous proteins in whole cell lysates of Jurkat T cells (also mock-infected controls) stimulated with plate-bound anti-human CD3ε and anti-human CD28 for the indicated times; 1% NP-40 lysis buffer (10 mM Tris-HCl pH 7.8, 0.5 mM EDTA, 250 mM NaCl); 2 μg antibody overnight at 4°C, protein G-sepharose; immunoblot. On the technique in general: Immunoblotting shows a protein as a band on a membrane.

B1: CARMA1 (protein, UniProt Q9BXL7 1-1154)
chain: MPGGGPEMDDYMETLKDEEDALWENVECNRHMLSRYINPAKLTPYLRQCKVIDEQDEDEVLNAPMLPSKINRAGRLLDILHTKGQRGYVVFLESLEFYYPELYKLVTGKEPTRRFSTIVVEEGHEGLTHFLMNEVIKLQQQMKAKDLQRCELLARLRQLEDEKKQMTLTRVELLTFQERYYKMKEERDSYNDELVKVKDDNYNLAMRYAQLSEEKNMAVMRSRDLQLEIDQLKHRLNKMEEECKLERNQSLKLKNDIENRPKKEQVLELERENEMLKTKNQELQSIIQAGKRSLPDSDKAILDILEHDRKEALEDRQELVNRIYNLQEEARQAEELRDKYLEEKEDLELKCSTLGKDCEMYKHRMNTVMLQLEEVERERDQAFHSRDEAQTQYSQCLIEKDKYRKQIRELEEKNDEMRIEMVRREACIVNLESKLRRLSKDSNNLDQSLPRNLPVTIISQDFGDASPRTNGQEADDSSTSEESPEDSKYFLPYHPPQRRMNLKGIQLQRAKSPISLKRTSDFQAKGHEEEGTDASPSSCGSLPITNSFTKMQPPRSRSSIMSITAEPPGNDSIVRRYKEDAPHRSTVEEDNDSGGFDALDLDDDSHERYSFGPSSIHSSSSSHQSEGLDAYDLEQVNLMFRKFSLERPFRPSVTSVGHVRGPGPSVQHTTLNGDSLTSQLTLLGGNARGSFVHSVKPGSLAEKAGLREGHQLLLLEGCIRGERQSVPLDTCTKEEAHWTIQRCSGPVTLHYKVNHEGYRKLVKDMEDGLITSGDSFYIRLNLNISSQLDACTMSLKCDDVVHVRDTMYQDRHEWLCARVDPFTDHDLDMGTIPSYSRAQQLLLVKLQRLMHRGSREEVDGTHHTLRALRNTLQPEEALSTSDPRVSPRLSRASFLFGQLLQFVSRSENKYKRMNSNERVRIISGSPLGSLARSSLDATKLLTEKQEELDPESELGKNLSLIPYSLVRAFYCERRRPVLFTPTVLAKTLVQRLLNSGGAMEFTICKSDIVTRDEFLRRQKTETIIYSREKNPNAFECIAPANIEAVAAKNKHCLLEAGIGCTRDLIKSNIYPIVLFIRVCEKNIKRFRKLLPRPETEEEFLRVCRLKEKELEALPCLYATVEPDMWGSVEELLRVVKDKIGEEQRKTIWVDEDQL
With B1, the binding result is given as “binds”.
